According to paper PMC10474464, “The mRNA binding-mediated self-regulatory function of small heat shock protein IbpA in γ-proteobacteria is conferred by a conserved arginine” (The Journal of Biological Chemistry, 2023):
Results are given in words; binding and its absence hold for the method and conditions named. Some results given as binding are weak or reduced against the parent protein; the word gives no strength.

Legend:
[1] = target: firefly luciferase, heat-denatured [luciferase: P08659]; test: co-sedimentation; sucrose density gradient centrifugation: purified IbpA (12 μM) and luciferase (3 μM) in buffer F mixed and incubated at 50 °C for 30 min, 10% to 50% (w/v) sucrose gradient; SDS-PAGE and CBB staining; both purified
[2] = target: Cedecea neteri IbpA, wild type (Cedecea neteri); test: sucrose density gradient centrifugation; purified IbpA (3 μM, dimeric units) alone in buffer F (50 mM Hepes-KOH pH 7.6, 0.1 M KCl, 5 mM DTT, 20 mM Mg-acetate) on a 10% to 30% (w/v) sucrose gradient, SW 41 Ti, 35,000 rpm, 4 °C, 80 min; fractions by SDS-PAGE with Western blot (anti-IbpA) or CBB staining; oligomeric state; both purified

Row | Molecule | binding [1] | binding [2]
1 | Cedecea neteri IbpA, wild type (from UniProt A0A089Q2Q3 1-137) | binds | –
2 | Escherichia coli inclusion body-associated protein A, wild type (natural protein, UniProt P0C054 1-137, looked up, Small heat shock protein IbpA of Escherichia coli, expressed from pCA24N-ibpAEc; also called IbpAEc; IbpAEc-WT; source: E. coli BW25113ΔAB, overexpressed (0.5 mM IPTG), purified (anion exchange chromatography)) MRNFDLSPLYRSAIGFDRLFNHLENNQSQSNGGYPPYNVELVDENHYRIAIAVAGFAESELEITAQDNLLVVKGAHADEQKERTYLYQGIAERNFERKFQLAENIHVRGANLVNGLLYIDLERVIPEAKKPRRIEIN | binds | –
3 | Cedecea neteri IbpA, wild type (protein, UniProt A0A089Q2Q3 1-137) MRNFDLSPLYRSAIGFDRLFNLLESNQSQSNGGYPPYNVELVDENHYRIAIAVAGFAESELDITAQDNLLIVKGAHADEQQERTYLYQGIAERNFERKFQLAENIHVRGASLVNGLLYIELEREIPESMKPRRIEIN | – | binds
4 | Escherichia coli inclusion body-associated protein A, R93A mutant (natural protein, UniProt P0C054 1-137, looked up, Small heat shock protein IbpA of Escherichia coli with R93A, made by site-directed mutagenesis of pCA24N-ibpAEc; also called IbpAEc-R93A; IbpA-R93A; source: E. coli BW25113ΔAB, overexpressed (0.5 mM IPTG), purified (anion exchange chromatography)) MRNFDLSPLYRSAIGFDRLFNHLENNQSQSNGGYPPYNVELVDENHYRIAIAVAGFAESELEITAQDNLLVVKGAHADEQKERTYLYQGIAEANFERKFQLAENIHVRGANLVNGLLYIDLERVIPEAKKPRRIEIN | binds | –
